This series in a line: general procedure: Fmoc solid-phase peptide synthesis. The settings on record: whole synthesis, 220 nm.

We go through one sequence from patent publication US20220249622A1 (TCI CO., LTD., priority 2021, published 2022).

Plain letter strings leave the end groups untold.

Turning to NGTGPQNH (listed as Pangasius bocourti), the “final HPLC purity” value is given as 95% or above.
